Results: PMC8782160

Chains of the proteins cited; added tags and fusions are not shown. Where a name states a change or a piece, a line headed by the entry shows the natural chain unless it says otherwise. Chains listed by the source or under a name are the forms on record and can include a tag or linker.
UniProt P01106: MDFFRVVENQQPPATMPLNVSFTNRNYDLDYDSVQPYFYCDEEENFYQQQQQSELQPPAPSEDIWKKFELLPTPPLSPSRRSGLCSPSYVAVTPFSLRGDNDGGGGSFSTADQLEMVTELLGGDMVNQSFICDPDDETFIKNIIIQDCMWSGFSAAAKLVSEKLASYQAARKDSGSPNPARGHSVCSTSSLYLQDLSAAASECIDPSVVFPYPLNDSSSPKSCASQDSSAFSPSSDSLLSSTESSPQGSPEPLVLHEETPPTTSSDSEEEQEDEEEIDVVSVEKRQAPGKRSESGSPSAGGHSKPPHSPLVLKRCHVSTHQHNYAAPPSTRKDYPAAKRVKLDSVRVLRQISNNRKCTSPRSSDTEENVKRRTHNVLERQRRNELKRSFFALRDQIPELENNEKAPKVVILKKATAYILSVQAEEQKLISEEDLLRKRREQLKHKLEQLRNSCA
c-MYC (purified recombinant, Abcam ab169901) (human), one chain, as listed by the source: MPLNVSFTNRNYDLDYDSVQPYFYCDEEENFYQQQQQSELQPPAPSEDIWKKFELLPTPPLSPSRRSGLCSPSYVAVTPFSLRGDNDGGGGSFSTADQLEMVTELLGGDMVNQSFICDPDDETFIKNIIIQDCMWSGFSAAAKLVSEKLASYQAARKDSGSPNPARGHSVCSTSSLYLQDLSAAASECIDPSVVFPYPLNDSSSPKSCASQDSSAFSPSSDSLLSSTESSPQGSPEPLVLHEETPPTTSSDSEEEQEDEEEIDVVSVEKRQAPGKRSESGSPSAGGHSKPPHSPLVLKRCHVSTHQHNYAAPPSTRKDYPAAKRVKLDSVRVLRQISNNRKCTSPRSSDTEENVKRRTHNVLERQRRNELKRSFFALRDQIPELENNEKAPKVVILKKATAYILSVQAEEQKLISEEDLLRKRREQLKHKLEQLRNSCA

Assays:
[1] = tested on: c-MYC (purified recombinant, Abcam ab169901) (human); assay: EMSA; details: Probes annealed at room temperature 1 h, incubated 20 min with protein/NE; WEMSA gel at 100 V on ice; salt and pH not given; commercial protein; label: biotin
[2] = biological target: c-MYC in U937 nuclear extract (UniProt P01106); assay: WEMSA (EMSA + anti-c-MYC immunoblot); details: p = 0.05, PMA-stimulated U937 NE, Probes annealed at room temperature 1 h, incubated 20 min with protein/NE, WEMSA gel at 100 V on ice, salt and pH not given, protein in an extract, label: biotin
[3] = tested on: c-MYC (purified recombinant, Abcam ab169901) (human); assay: WEMSA (EMSA + anti-c-MYC immunoblot); details: p = 0.01, Probes annealed at room temperature 1 h, incubated 20 min with protein/NE, WEMSA gel at 100 V on ice, salt and pH not given, commercial …, label: biotin
[4] = tested on: c-MYC (purified recombinant, Abcam ab169901) (human); assay: competition with a labelled probe; details: 100x unlabelled probe; Probes annealed at room temperature 1 h, incubated 20 min with protein/NE; WEMSA gel at 100 V on ice; salt and pH not given; commercial protein

Sequence	binding result [1]	binding result [4]	further results
CTCCATGACGCAATTTGGGCTCCGTTATGAGTCAGCTCAAGTAA (double strand) [rs6600247 C (AS-risk) probe]	binds more weakly	–	binding result ([2]; C < T): binds more weakly; binding result ([3]; C < T): binds more weakly
CTCCATGACGCAATTTGGGCTCCGTTATGAGTCAGCTCAAGTAA (double strand) [rs6600247 C unlabelled competitor]	–	binds	–
CTCCATGACGCAATTTGGGCTCTGTTATGAGTCAGCTCAAGTAA (double strand) [rs6600247 T (protective) probe]	binds	–	binding result ([2]; T > C): binds; binding result ([3]; T > C): binds
CTCCATGACGCAATTTGGGCTCTGTTATGAGTCAGCTCAAGTAA (double strand) [rs6600247 T unlabelled competitor]	–	binds	–

The exact form of at least one protein or probe is not confirmed. For some assays here: The comparison behind a weaker result is the experiment's own reference, which may not be listed here. For some assays here: Results from cells or extracts need not show a direct contact. For some assays here: At least one verdict rests on a figure or table, not on a statement of the authors.
